# Measurements: PMC5519615
# Results are given in words; binding and its absence hold for the method and conditions named. In cells and extracts the contact can be indirect. Some binding calls cover weakened binding; strength is not graded here.
# T1: acid-sensing ion channel 1a (ASIC1a) (human (endogenous in HL-MVEC)) (UniProt P78348)
# T1 sequence: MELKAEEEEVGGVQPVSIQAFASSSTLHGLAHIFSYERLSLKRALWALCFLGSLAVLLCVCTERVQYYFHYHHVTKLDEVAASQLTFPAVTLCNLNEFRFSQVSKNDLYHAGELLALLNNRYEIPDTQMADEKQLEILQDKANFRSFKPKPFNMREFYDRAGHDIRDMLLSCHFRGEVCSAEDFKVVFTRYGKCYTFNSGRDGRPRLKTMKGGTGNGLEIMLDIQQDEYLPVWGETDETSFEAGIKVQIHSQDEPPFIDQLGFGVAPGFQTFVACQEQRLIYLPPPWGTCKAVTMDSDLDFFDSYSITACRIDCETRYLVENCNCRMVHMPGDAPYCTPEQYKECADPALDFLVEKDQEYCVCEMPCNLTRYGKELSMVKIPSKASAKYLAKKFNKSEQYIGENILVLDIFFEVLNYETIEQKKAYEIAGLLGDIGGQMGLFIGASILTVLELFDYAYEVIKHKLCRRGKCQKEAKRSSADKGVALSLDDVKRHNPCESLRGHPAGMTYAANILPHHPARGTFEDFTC
# B1: epithelial sodium channel (ENaC)-α (protein, UniProt P37088 1-669)
# chain: MEGNKLEEQDSSPPQSTPGLMKGNKREEQGLGPEPAAPQQPTAEEEALIEFHRSYRELFEFFCNNTTIHGAIRLVCSQHNRMKTAFWAVLWLCTFGMMYWQFGLLFGEYFSYPVSLNINLNSDKLVFPAVTICTLNPYRYPEIKEELEELDRITEQTLFDLYKYSSFTTLVAGSRSRRDLRGTLPHPLQRLRVPPPPHGARRARSVASSLRDNNPQVDWKDWKIGFQLCNQNKSDCFYQTYSSGVDAVREWYRFHYINILSRLPETLPSLEEDTLGNFIFACRFNQVSCNQANYSHFHHPMYGNCYTFNDKNNSNLWMSSMPGINNGLSLMLRAEQNDFIPLLSTVTGARVMVHGQDEPAFMDDGGFNLRPGVETSISMRKETLDRLGGDYGDCTKNGSDVPVENLYPSKYTQQVCIHSCFQESMIKECGCAYIFYPRPQNVEYCDYRKHSSWGYCYYKLQVDFSSDHLGCFTKCRKPCSVTSYQLSAGYSRWPSVTSQEWVFQMLSRQNNYTVNNKRNGVAKVNIFFKELNYKTNSESPSVTMVTLLSNLGSQWSLWFGSSVLSVVEMAELVFDLLVIMFLMLLRRFRSRYWSPGRGGRGAQEVASTLASSPPSHFCPHPMSLSLSQPGPAPSPALTAPPPAYATLGPRPSPGGSAGASSSTCPLGGP
# Molecular target: T1, acid-sensing ion channel 1a (ASIC1a) (human (endogenous in HL-MVEC))
# Assay: co-IP; precleared whole HL-MVEC lysate (20 mM Tris-HCl pH 7.4, 0.15 M NaCl, 1% Nonidet P-40, 2 mM EDTA) incubated with ASIC1 antibody 1 h at 4°C, then agarose G magnetic beads overnight at 4°C; western blot with ENaC-α antibody
binder,measurement,value
B1,binding,binds
